# Measured values: patent US20100105748A1, “METHODS AND COMPOSITIONS FOR TREATMENT OF DRUG ADDICTION” (priority 2007, published 2010)
# For at least one compound, name, drawing or mass did not settle the structure.
# Tests used:
# Type in all cases: in vivo
# mice = assay: Cocaine-induced locomotion (ambulations in activity chambers); details: cocaine 5, 10 or 20 mg/kg i.p.; both Dbh +/- and -/- mice
# Protocol: Locomotor activity measurement: Experiments were conducted in an isolated behavior room between 1000 and 1600 hrs. Ambulations (consecutive beam breaks) were measured in transparent plexiglass cages (40×20×20 cm^3) placed into a rack with seven infrared photobeams spaced 5 cm apart, each end beam 5 cm from the cage wall (San Diego Instruments Inc., LaJolla, Calif.). Mice were placed in the activity chambers for 4 hr, injected with cocaine (5, 10, or 20 mg/kg i.p.; Sigma-Aldrich, St Louis, Mo.), and ambulations were recorded for an additional 2 hr. Data were analyzed by ANOVA followed by Bonferroni post-hoc tests. For the antagonist studies, saline, the 5-HT1A antagonist WAY100635 (0.03 mg/kg), the 5-HT2 antagonist ketanserin (0.3 mg/kg), the D1 antagonist SCH23390 (0.03 mg/kg), or the D2 antagonist eticlopride were injected i.p. 30 min prior to cocaine (20 mg/kg). […]
# Mice were implanted with minipumps for delivering either vehicle (50% DMSO, 0.9% NaCl or nepicastat (10 or 50 mg/kg/d). 3 weeks later, the mice were put in activity chambers, allowed to acclimate for 4 hrs, then injected with cocaine (10 mg/kg, i.p.) and ambulations measured for 2 additional hours, as shown in FIG. 8 (N=6 per group).
# Two hours later, the mice were put in activity chambers, allowed to acclimate for 4 hrs, injected with cocaine (20 mg/kg, i.p.) and ambulations measured for 2 additional hours. […]
# Dbh +/- and Dbh -/- mice [1] = assay: Elevated plus maze (EPM), cocaine-induced anxiety, Dbh mice; details: cocaine 5, 10 or 20 mg/kg i.p. 20 min prior
# From the text: Male and female Dbh +/− and −/− mice (aged 2 to 5 months) were individually housed on a reversed light cycle (lights on at 19:00, lights off at 7:00), and were allowed a minimum of two weeks to habituate to the new lighting conditions after moving from normal light cycle (lights on at 7:00, lights off at 19:00). Food and water were available ad libitum throughout the course of the study. Data from male and female mice were combined, since there were no detectable gender differences. Dbh mice were generated as described (15) and maintained on a mixed C57Bl6/J and 129SvEv background. […]
# (§1) In all experiments, cocaine was injected 20 minutes prior to behavioral testing as described by Yang and colleagues (Yang et al., (1992) Pharmacol. Biochem. & Behavior 41: 643-650). […] Videotapes were later scored by an observer who was blind to genotype and treatment group. The measure used for analysis was the percentage of time spent exploring the open arms, which was calculated by dividing the time spent in the open arms by the combined time spent in open and closed arms. […]
# Entry into an arm of the plus maze was defined as the animal placing all four paws in that particular compartment of the apparatus. […] Data were analyzed using independent samples t-tests, one-way ANOVA followed by Dunnett's post-hoc tests, or two-way ANOVA followed by Bonferroni post-hoc tests using Prism 4.0 for Macintosh. […]
# C57BL6/J wild type mice = assay: Elevated plus maze (EPM), cocaine-induced anxiety, wild type C57BL6/J mice
# Protocol: Behavioral testing The EPM apparatus consisted of two open arms and two enclosed arms arranged in a plus orientation. The arms were elevated 30 inches above the floor, with each arm projecting 12 inches from the center. Because rodents naturally prefer dark, enclosed compartments, a greater willingness to explore the open, well-lit arms is believed to represent a decrease in the animal's anxiety. […]
# as §1
# Entry into an arm of the plus maze was defined as the animal placing all four paws in that particular compartment of the apparatus. […] Mice were excluded from data analysis for any of the following reasons: if they jumped or fell off the maze after test had begun, if they had […] a seizure while on the testing apparatus, or if their open arm time was detected as an outlier using Grubb's test. […]
# Dbh +/- and Dbh -/- mice [2] = assay: Cocaine-conditioned place preference (CPP); details: cocaine 5, 10, 20 mg/kg, 3 days of pairing
smiles,measurement,setting,value
COC(=O)[C@H]1[C@@H](OC(=O)c2ccccc2)C[C@@H]2CC[C@H]1N2C [cocaine],locomotor activity,mice,dose-dependent increase in locomotor activity
same,percent open arm time in EPM,Dbh +/- and Dbh -/- mice [1]; Dbh +/- mice,dose-dependently decreased percent open arm time
same,anxiety behavior in EPM,Dbh +/- and Dbh -/- mice [1]; Dbh -/- mice,unaffected
same,cocaine-induced anxiety in EPM,"C57BL6/J wild type mice; cocaine 10 mg/kg, preliminary experiments, data not shown",not sufficient to induce significant cocaine-induced anxiety
same,percent open arm time in EPM,C57BL6/J wild type mice; cocaine 20 mg/kg i.p.,reduced percent open arm time
same,conditioned place preference,Dbh +/- and Dbh -/- mice [2]; Dbh +/- mice,significant place preference to cocaine at the moderate and high dose (10 and 20 mg/kg) but not the low dose (5 mg/kg)
same,conditioned place preference,Dbh +/- and Dbh -/- mice [2]; Dbh -/- mice,significant preference only at the low dose and avoided the cocaine-paired chamber at the high dose
